The target of assay [1] is Kcnq1 (Kv7.1/Kcnq1) (mouse (endogenous in murine cardiac tissue)) (UniProt P97414). Briefly: affinity purification with mass spectrometry; IP of the endogenous channel with 2 µg channel antibody from 3 mg membrane-enriched mouse heart lysate (1% NP-40, 1% sodium deoxycholate), overnight at 4 °C, Dynabeads Protein G, quadruplicate; LC-MS/MS; significant interactors against control by volcano plot.

Sequences of proteins named here, by UniProt entry; tags and fusion partners are left off.
UniProt P97414: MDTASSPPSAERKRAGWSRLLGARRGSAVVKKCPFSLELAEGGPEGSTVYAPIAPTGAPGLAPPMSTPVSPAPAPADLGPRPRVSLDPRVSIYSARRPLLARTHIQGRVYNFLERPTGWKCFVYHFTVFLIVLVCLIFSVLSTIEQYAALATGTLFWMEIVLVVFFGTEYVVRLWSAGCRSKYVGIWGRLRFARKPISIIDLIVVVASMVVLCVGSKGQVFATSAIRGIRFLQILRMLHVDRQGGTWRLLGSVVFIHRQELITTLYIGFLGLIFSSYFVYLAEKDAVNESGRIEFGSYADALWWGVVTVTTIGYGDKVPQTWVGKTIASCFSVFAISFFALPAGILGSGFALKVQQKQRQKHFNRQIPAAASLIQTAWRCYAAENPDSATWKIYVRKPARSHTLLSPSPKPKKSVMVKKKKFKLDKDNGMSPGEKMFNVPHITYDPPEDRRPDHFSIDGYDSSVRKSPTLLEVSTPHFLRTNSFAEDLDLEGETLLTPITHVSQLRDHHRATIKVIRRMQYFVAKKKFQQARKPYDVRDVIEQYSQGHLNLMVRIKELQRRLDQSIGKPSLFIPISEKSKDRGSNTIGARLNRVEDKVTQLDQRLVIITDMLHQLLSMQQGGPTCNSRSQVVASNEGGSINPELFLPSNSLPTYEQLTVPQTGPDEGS
UniProt Q01815: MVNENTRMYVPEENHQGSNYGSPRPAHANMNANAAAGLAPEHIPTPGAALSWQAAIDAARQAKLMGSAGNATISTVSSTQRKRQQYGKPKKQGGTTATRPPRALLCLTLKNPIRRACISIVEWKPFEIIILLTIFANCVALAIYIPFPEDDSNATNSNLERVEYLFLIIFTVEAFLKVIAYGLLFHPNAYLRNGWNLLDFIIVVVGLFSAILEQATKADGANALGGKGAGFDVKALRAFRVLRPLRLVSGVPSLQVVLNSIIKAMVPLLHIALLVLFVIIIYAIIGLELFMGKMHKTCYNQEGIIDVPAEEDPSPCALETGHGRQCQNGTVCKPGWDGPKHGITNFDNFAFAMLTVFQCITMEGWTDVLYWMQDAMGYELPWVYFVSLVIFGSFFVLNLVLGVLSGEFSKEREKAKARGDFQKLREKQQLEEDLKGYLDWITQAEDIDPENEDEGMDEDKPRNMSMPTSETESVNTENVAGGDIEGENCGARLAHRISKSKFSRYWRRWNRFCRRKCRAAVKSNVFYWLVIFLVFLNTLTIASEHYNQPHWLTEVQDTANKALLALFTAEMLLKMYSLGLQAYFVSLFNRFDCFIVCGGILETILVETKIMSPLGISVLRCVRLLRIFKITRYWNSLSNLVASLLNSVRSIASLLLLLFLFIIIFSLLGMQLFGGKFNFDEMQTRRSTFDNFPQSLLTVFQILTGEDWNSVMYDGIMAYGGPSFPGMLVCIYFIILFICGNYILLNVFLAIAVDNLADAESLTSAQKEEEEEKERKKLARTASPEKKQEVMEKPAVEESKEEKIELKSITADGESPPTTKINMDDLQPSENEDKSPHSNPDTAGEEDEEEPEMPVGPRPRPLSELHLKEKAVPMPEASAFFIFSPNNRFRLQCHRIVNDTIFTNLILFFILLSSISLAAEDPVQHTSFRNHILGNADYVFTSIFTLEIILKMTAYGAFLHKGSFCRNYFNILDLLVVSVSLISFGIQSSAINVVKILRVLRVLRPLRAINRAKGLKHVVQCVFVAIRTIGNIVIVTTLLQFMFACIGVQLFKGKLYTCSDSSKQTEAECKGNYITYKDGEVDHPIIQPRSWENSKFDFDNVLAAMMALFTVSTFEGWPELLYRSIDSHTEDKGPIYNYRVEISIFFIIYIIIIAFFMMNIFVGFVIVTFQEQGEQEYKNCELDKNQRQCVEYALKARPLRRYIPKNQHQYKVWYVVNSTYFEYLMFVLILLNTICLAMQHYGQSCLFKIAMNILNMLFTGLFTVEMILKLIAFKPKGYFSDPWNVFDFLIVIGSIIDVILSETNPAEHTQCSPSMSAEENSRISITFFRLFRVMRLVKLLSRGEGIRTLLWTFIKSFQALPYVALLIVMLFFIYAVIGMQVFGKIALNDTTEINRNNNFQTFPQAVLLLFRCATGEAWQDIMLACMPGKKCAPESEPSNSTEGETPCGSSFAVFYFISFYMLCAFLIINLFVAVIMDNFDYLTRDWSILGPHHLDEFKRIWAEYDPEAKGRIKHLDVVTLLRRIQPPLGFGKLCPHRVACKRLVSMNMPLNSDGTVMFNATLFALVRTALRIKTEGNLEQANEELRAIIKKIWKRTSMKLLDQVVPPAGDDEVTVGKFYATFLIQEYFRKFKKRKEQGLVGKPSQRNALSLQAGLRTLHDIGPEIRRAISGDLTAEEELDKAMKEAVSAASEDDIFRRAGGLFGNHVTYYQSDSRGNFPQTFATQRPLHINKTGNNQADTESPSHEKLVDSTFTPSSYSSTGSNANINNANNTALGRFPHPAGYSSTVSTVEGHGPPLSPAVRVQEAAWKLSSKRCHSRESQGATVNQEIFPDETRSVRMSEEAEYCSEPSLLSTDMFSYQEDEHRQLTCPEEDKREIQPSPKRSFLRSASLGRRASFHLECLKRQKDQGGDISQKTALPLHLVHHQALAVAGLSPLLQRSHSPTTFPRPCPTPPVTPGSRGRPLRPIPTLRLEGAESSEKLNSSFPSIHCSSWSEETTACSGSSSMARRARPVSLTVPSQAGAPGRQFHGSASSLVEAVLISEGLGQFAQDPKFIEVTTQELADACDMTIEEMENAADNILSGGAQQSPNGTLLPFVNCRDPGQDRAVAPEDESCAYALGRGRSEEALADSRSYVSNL
UniProt P23242: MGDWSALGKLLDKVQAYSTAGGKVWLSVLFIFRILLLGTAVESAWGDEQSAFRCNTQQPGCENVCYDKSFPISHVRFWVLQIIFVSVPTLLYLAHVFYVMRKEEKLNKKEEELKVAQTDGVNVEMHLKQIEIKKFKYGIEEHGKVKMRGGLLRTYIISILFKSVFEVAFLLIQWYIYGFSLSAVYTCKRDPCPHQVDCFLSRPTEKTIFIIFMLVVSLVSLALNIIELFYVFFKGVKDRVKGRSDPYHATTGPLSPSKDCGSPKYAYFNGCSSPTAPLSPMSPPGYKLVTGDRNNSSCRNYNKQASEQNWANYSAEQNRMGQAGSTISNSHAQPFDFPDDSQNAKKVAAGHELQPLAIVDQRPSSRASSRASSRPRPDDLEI
UniProt O35219: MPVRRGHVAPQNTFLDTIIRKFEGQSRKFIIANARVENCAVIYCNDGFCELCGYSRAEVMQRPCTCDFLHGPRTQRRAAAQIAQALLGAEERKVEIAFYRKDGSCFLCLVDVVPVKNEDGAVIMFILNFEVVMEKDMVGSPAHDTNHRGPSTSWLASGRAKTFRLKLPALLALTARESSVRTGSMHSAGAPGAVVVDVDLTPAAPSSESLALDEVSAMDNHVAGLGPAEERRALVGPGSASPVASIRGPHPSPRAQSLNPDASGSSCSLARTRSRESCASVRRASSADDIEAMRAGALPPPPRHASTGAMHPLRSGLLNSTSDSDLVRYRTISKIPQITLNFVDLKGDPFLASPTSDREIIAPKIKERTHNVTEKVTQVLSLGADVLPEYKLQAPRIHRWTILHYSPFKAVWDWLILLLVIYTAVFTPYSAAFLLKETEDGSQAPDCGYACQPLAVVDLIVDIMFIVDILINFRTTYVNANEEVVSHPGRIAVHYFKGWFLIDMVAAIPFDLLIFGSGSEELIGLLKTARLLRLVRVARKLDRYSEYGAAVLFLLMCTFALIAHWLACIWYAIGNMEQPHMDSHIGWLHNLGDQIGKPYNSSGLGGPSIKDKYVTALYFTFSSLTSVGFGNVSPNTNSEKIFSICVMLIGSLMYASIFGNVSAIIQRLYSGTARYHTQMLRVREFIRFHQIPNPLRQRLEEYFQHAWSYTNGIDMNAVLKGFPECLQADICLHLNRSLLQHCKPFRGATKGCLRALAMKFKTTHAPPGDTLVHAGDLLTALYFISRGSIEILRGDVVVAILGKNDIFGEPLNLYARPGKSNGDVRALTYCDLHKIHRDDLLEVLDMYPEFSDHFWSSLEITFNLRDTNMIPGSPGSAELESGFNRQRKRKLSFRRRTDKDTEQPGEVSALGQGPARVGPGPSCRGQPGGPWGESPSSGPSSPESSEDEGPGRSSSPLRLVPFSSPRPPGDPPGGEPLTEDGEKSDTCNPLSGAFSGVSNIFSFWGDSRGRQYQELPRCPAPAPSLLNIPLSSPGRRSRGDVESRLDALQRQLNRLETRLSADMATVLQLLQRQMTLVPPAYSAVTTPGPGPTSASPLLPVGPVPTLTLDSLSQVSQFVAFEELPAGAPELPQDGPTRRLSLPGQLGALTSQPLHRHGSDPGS
UniProt Q80YT7: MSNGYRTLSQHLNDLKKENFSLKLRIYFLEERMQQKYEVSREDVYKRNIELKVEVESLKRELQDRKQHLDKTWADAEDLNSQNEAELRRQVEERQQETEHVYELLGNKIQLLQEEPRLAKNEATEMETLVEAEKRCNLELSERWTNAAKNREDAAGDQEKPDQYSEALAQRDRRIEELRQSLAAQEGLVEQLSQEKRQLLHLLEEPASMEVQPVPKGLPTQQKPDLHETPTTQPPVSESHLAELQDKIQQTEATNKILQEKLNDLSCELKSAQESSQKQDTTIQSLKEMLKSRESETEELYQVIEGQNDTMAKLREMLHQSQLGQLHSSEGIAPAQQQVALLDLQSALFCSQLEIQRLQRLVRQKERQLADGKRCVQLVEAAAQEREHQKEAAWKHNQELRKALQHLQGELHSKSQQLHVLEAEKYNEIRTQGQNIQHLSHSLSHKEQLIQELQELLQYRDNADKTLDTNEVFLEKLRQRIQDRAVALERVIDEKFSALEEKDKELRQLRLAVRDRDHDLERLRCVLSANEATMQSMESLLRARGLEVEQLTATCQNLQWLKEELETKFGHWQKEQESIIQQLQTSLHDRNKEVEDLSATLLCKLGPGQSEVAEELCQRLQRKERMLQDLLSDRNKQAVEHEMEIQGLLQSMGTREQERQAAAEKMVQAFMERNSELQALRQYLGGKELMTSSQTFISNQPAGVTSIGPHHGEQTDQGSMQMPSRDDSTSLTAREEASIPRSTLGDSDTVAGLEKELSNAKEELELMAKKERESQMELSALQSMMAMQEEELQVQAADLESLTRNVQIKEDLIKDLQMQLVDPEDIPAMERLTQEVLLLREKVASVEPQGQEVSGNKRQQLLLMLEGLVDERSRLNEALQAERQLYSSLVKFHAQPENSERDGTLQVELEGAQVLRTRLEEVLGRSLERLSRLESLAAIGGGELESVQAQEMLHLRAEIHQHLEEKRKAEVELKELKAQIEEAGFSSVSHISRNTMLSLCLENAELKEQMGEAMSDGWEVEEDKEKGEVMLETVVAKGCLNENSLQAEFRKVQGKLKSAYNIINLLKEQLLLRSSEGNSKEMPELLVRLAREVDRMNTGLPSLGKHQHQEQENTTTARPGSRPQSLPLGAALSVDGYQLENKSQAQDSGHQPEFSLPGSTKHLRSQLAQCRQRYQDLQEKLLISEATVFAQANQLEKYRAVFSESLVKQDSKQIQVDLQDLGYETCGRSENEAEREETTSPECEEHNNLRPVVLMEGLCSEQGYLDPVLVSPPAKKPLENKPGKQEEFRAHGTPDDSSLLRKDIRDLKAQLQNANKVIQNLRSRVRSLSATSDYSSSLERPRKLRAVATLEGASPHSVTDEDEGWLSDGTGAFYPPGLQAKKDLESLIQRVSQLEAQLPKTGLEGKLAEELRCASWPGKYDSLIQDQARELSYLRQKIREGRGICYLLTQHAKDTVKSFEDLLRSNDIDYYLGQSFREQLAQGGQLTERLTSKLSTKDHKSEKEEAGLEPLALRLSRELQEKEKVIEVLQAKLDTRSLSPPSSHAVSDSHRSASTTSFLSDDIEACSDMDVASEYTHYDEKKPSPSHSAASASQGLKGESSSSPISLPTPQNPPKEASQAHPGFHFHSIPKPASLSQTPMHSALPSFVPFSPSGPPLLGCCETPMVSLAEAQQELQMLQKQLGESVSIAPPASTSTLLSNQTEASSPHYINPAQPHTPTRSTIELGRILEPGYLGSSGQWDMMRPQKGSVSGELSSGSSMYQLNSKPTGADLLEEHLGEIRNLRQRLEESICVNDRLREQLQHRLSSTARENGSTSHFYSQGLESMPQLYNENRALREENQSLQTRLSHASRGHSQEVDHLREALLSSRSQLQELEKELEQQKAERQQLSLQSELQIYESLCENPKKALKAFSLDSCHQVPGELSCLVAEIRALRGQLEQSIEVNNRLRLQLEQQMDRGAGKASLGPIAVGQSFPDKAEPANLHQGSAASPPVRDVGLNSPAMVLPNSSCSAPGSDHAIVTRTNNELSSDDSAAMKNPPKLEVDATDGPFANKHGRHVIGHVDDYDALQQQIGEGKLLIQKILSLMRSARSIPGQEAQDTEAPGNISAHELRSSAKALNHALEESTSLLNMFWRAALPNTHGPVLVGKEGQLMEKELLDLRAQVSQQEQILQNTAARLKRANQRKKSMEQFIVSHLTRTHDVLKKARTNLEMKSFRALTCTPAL

Assay [2] concerns the target Cacna1c (Cav1.2) (mouse (endogenous in murine cardiac tissue)) (UniProt Q01815). The assay is described as above.
Assay [3] concerns the target Inf2 (mouse (endogenous in murine cardiac tissue)) (UniProt Q0GNC1). Briefly: affinity purification with mass spectrometry; triplicate IPs from murine cardiac tissue with antibodies against Inf2 or IgG; LC-MS/MS.
Assay [4] deals with Gja1 (Cx43) (mouse (endogenous in murine cardiac tissue)) (UniProt P23242). Briefly: affinity purification with mass spectrometry; IP of the endogenous channel with 2 µg channel antibody from 3 mg membrane-enriched mouse heart lysate (1% NP-40, 1% sodium deoxycholate), overnight at 4 °C, Dynabeads Protein G, quadruplicate; LC-MS/MS; significant interactors against control by volcano plot.

Assay [5] addresses T1, Kcnj2 (Kir2.1) (mouse (endogenous in murine cardiac tissue)) (UniProt P35561).
T1 sequence: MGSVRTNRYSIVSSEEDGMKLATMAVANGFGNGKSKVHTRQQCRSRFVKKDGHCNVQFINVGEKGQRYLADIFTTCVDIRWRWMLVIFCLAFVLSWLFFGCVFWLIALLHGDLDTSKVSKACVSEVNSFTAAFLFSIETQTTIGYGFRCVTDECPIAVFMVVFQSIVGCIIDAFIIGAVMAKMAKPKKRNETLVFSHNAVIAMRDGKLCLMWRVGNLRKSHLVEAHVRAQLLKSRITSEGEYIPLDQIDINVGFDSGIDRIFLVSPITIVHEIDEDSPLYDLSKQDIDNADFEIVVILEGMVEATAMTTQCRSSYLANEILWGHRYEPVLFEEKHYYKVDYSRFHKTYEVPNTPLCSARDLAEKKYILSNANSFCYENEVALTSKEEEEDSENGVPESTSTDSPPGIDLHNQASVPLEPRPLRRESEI
The assay is described as above.

For assay [6], the target named is Hcn4 (HCN4) (mouse (endogenous in murine cardiac tissue)) (UniProt O70507). The description is as above.
Assay [7] has as its target Scn5a (Nav1.5) (mouse (endogenous in murine cardiac tissue)) (UniProt Q9JJV9). The description is as above.
Assay [8] concerns the target T2, Kcnd2 (Kv4.2) (mouse (endogenous in murine cardiac tissue)) (UniProt Q9Z0V2).
T2 sequence: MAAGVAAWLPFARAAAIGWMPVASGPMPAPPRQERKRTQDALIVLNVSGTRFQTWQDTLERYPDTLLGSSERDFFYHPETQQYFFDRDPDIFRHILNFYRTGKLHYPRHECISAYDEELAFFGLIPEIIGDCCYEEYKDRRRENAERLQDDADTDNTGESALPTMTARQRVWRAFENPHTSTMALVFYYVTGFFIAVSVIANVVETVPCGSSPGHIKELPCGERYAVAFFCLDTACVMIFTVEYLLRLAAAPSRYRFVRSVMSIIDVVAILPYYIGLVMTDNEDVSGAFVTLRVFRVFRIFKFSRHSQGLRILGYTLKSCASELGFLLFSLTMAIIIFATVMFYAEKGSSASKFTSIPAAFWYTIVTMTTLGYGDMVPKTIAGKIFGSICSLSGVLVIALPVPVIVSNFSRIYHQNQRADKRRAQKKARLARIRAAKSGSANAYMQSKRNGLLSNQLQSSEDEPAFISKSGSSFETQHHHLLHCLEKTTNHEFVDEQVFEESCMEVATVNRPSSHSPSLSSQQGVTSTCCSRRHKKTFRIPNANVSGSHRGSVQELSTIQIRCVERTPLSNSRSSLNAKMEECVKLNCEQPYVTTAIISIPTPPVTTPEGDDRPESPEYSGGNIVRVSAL
The description is as above.

The target in assay [9] is Kcnh2 (Kv11.1/ERG) (mouse (endogenous in murine cardiac tissue)) (UniProt O35219). The description is as above.
Assay [10] deals with T3, Kcnj5 (Kir3.4) (mouse (endogenous in murine cardiac tissue)) (UniProt P48545).
T3 sequence: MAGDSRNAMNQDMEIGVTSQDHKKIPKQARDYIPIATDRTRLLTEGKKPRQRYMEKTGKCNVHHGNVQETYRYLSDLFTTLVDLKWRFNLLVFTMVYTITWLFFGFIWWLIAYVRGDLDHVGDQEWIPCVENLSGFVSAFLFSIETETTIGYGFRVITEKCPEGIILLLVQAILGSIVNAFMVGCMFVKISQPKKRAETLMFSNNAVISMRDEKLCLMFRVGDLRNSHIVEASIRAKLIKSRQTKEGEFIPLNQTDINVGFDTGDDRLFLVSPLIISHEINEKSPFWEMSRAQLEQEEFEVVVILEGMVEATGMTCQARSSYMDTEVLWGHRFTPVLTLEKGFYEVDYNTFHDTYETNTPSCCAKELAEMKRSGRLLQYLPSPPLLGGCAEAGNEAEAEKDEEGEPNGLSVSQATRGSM
The assay is described as above.

Consider eleven substances from publication PMC11041666.

No constants are given. Whether binding was seen depends on the method and setting. In cells and extracts the contact can be indirect. These calls come from enrichment with a bait or labelling near it, and not all partners need be listed.

“Kcnh2 (Kv11.1/ERG) (from UniProt O35219 1-1162)”: the binding entry in assay [1] was “binds”.

Regarding Gja1 (Cx43) (from UniProt P23242 1-382), the binding result in assay [1] and in [2] was “binds” throughout.

Take “Cacna1c (Cav1.2) (from UniProt Q01815 1-2139)”: the binding result in assay [3] and in assay [4] was “binds” in each case.

Pde4dip (from UniProt Q80YT7 1-2224): the binding entry in assay [1], in assay [5] and in assay [6] was “binds” in each case.

For Nrap (from UniProt Q80XB4 1-1728), the binding result in assay [1] is recorded as “binds”.

For Cacnb1 (from UniProt Q8R3Z5 1-597), the binding entry in [2] is given as “binds”.

Consider “gelsolin (Gsn) (from UniProt P13020 26-780)”, for which the binding result in [7] was “binds”.

In the case of Nos1ap (from UniProt Q9D3A8 1-503), the binding result in [1] and in assay [4] was “binds” in each case.

Myzap (from UniProt Q3UIJ9): the binding entry in [8], in [9] and in assay [10] was “binds” each time.

For the substance Inf2 (from UniProt Q0GNC1 1-1273), the binding result in assay [2] is “binds”.

For Nlrx1 (from UniProt Q3TL44 87-975), the binding entry in assay [1], in assay [9] and in [6] was “binds” in each case.
